Reference: US9012626B2, “Rebaudioside a composition and method for purifying rebaudioside a” (The Coca-Cola Company, priority 2006, dated 2015)
Some results were stated once for a whole list of compounds, not compound by compound.

assay: Hygroscopicity (moisture absorption); type: physicochemical; conditions: on a dry basis

Moisture absorbed (hygroscopic), up to 10 % by weight:
C=C1C[C@@]23CC[C@H]4[C@@](C)(CCC[C@@]4(C)C(=O)O[C@@H]4O[C@H](CO)[C@@H](O)[C@H](O)[C@H]4O)[C@@H]2CC[C@]1(O[C@@H]1O[C@H](CO)[C@@H](O)[C@H](O[C@@H]2O[C@H](CO)[C@@H](O)[C@H](O)[C@H]2O)[C@H]1O[C@@H]1O[C@H](CO)[C@@H](O)[C@H](O)[C@H]1O)C3 [Form 3, rebaudioside A]
C=C1C[C@@]23CC[C@H]4[C@@](C)(CCC[C@@]4(C)C(=O)O[C@@H]4O[C@H](CO)[C@@H](O)[C@H](O)[C@H]4O)[C@@H]2CC[C@]1(O[C@@H]1O[C@H](CO)[C@@H](O)[C@H](O[C@@H]2O[C@H](CO)[C@@H](O)[C@H](O)[C@H]2O)[C@H]1O[C@@H]1O[C@H](CO)[C@@H](O)[C@H](O)[C@H]1O)C3 [Form 4, rebaudioside A]
C=C1C[C@@]23CC[C@H]4[C@@](C)(CCC[C@@]4(C)C(=O)O[C@@H]4O[C@H](CO)[C@@H](O)[C@H](O)[C@H]4O)[C@@H]2CC[C@]1(O[C@@H]1O[C@H](CO)[C@@H](O)[C@H](O[C@@H]2O[C@H](CO)[C@@H](O)[C@H](O)[C@H]2O)[C@H]1O[C@@H]1O[C@H](CO)[C@@H](O)[C@H](O)[C@H]1O)C3 [Form 2, rebaudioside A]
